No constants are given. Whether binding was seen depends on the method and setting. Binding seen in cells or lysates may run through a third protein. Binding calls can cover weak binding; strength is not graded here. Blank lines part the entries; values can stand above or below the molecule they belong to.
Tests used:
[1] = biological target: T1, Kv4.3 (α subunit of Ito, KCND3) (human) (UniProt Q9UK17); assay: co-IP; whole-cell lysate (0.5 mg) of HEK293T cells transfected with Kv4.3 alone; primary antibody overnight at 4 °C, protein A/G plus agarose beads 4 h at 4 °C, washed with RIPA lysis buffer, Western blot
T1 sequence: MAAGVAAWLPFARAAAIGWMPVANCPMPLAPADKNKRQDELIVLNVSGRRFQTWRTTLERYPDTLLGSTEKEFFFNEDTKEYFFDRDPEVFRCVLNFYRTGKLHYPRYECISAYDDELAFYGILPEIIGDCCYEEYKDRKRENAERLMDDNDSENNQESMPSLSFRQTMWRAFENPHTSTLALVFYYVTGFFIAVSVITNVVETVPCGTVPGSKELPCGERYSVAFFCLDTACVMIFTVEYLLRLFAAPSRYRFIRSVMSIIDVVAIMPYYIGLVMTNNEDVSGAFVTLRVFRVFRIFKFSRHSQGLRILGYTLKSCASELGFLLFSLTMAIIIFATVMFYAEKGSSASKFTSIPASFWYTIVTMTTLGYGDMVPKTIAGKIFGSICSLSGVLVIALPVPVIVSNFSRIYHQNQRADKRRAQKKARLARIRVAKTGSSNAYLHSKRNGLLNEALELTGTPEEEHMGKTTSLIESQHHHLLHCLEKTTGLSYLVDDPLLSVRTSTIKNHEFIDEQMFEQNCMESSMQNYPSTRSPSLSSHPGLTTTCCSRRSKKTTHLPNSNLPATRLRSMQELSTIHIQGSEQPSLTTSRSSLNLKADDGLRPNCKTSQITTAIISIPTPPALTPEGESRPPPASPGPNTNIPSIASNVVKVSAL

[2] = biological target: T1, Kv4.3 (α subunit of Ito, KCND3) (human); assay: co-IP; whole-cell lysate (0.5 mg) of HEK293T cells co-transfected with hERG and Kv4.3, also with Hsp70 siRNA; primary antibody overnight at 4 °C, protein A/G plus agarose beads 4 h at 4 °C, washed with RIPA lysis buffer, Western blot
[3] = biological target: Hsp70 (human (endogenous in HEK293T)); assay: co-IP; whole-cell lysate (0.5 mg) of HEK293T cells transfected with Kv4.3 alone; primary antibody overnight at 4 °C, protein A/G plus agarose beads 4 h at 4 °C, washed with RIPA lysis buffer, Western blot
[4] = biological target: Hsp70 (human (endogenous in HEK293T)); assay: co-IP; whole-cell lysate (0.5 mg) of HEK293T cells co-transfected with hERG and Kv4.3, also with Hsp70 siRNA; primary antibody overnight at 4 °C, protein A/G plus agarose beads 4 h at 4 °C, washed with RIPA lysis buffer, Western blot

- binding [1]: binds
Molecule: Hsp70 (human (endogenous in HEK293T))
- binding [2]: binds

- binding [3]: binds
B1: Kv4.3 (α subunit of Ito, KCND3) (protein, UniProt Q9UK17 1-655)
chain: T1 sequence
- binding [4]: binds
